Source: patent publication US6720313B1, “Biocidal composition containing phosphite ions” (Mattersmiths Holdings Limited, priority 1998, dated 2004)
At least one structure is not confirmed: it was looked up by name or label, or the drawing left a doubt.

Columns and labels:
[1] = assay type: physicochemical; conditions: pH decreased by addition of phosphorous acid, preferred biocide concentration
From the text: We decreased the pH by addition of phosphorous acid.
We have achieved solubility of fenpropimorph of as much as 10% by weight. This high level of solubility remains when that active is also the presence of 10-20% of other biocides.

[2] = precipitation of solubilised biocides on addition of a higher pH solution; assay type: physicochemical; conditions: aqueous solutions, pH raised to greater than 5
From the text: We carried out several studies, some in aqueous systems and others on wood subsequent to the biocide formulation being applied, wherein we applied a further solution with higher pH to increase the pH to greater than 5.

CC(Cc1ccc(C(C)(C)C)cc1)CN1C[C@@H](C)O[C@@H](C)C1 (some centres unmarked) [fenpropimorph, dimethylethyl phenyl methylpropyl dimethylmorpholine]
pH needed for complete dissolution [1]: below 4.0 | effect of adding a solution of higher pH [2]: immediate precipitation
